Experimental data reported in patent publication US7977477B2, “Benzimidazole derivatives and their use as protein kinase inhibitors” (Astex Therapeutics, Limited, priority 2003, dated 2011).
Some of these results come from one statement about several compounds together.

Biological target: T1, CDK2/CyclinA (Homo sapiens, UniProt P24941)
T1 construct: purchased Upstate Biotechnology
Test: CDK2 kinase inhibitory activity (Example 306, Protocol A or B)
Assay type: biochemical
Conditions: alternative criterion: at least 50% inhibition at 10 μM
Method: Compounds of the invention were tested for kinase inhibitory activity using either Protocol A or Protocol B.
1.7 μl of active CDK2/CyclinA (Upstate Biotechnology, 10 U/μl) is diluted in assay buffer (250 μl of 10× strength assay buffer (200 mM MOPS pH 7.2, 250 mM β-glycerophosphate, 50 mM EDTA, 150 mM MgCl2), 11.27 μl 10 mM ATP, 2.5 μl 1M DTT, 25 μl 100 mM sodium orthovanadate, 708.53 μl H2O), and 10 μl mixed with 10 μl of histone substrate mix (60 μl bovine histone H1 (Upstate Biotechnology, 5 mg/ml), 940 μl H2O, 35 μCi γ^33P-ATP) and added to 96 well plates along with 5 μl of various dilutions of the test compound in DMSO (up to 2.5%). The reaction is allowed to proceed for 5 hours before being stopped with an excess of ortho-phosphoric acid (30 μl at 2%).
(§1) γ^33P-ATP which remains unincorporated into the histone H1 is separated from phosphorylated histone H1 on a Millipore MAPH filter plate. The wells of the MAPH plate are wetted with 0.5% orthophosphoric acid, and then the results of the reaction are filtered with a Millipore vacuum filtration unit through the wells. Following filtration, the residue is washed twice with 200 μl of 0.5% orthophosphoric acid. Once the filters have dried, 25 μl of Microscint 20 scintillant is added, and then counted on a Packard Topcount for 30 seconds.
The % inhibition of the CDK2 activity is calculated and plotted in order to determine the concentration of test compound required to inhibit 50% of the CDK2 activity (IC50).
Activated CDK2/CyclinA (Brown et al, Nat. Cell Biol., 1, pp 438-443, 1999; Lowe, E. D., et al Biochemistry, 41, pp 15625-15634, 2002) is diluted to 125 pM in 2.5× strength assay buffer (50 mM MOPS pH 7.2, 62.5 mM O-glycerophosphate, 12.5 mM EDTA, 37.5 mM MgCl2, […], 2.5 mM DTT, 2.5 mM sodium orthovanadate, 0.25 mg/ml bovine serum albumin), and 10 fi mixed with 10 A1 of histone substrate mix (60 μl bovine histone H1 (Upstate Biotechnology, 5 mg/ml), 940 μl H2O, 35 μCi γ^33P-ATP) and added to 96 well plates along with 5 μl of various dilutions of the test compound in DMSO (up to 2.5%). The reaction is allowed to proceed for 2 to 4 hours before being stopped with an excess of ortho-phosphoric acid (5 μl at 2%).
as §1, with “20” for “25”

Compound	IC50 [µM]
O=C(Nc1c[nH]nc1-c1nc2ccccc2[nH]1)c1ccccc1OCCN1CCCC1 [Example 32, N-[3-(1H-Benzimidazol-2-yl)-1H-pyrazol-4-yl]-2-(2-pyrrolidin-1-yl-ethoxy)-benzamide]	< 20
Cc1cc(C(=O)Nc2c[nH]nc2-c2nc3ccccc3[nH]2)c(C(F)(F)F)o1 [Example 111]	< 20
O=C(Nc1c[nH]nc1-c1nc2ccccc2[nH]1)c1nccs1 [Example 119]	< 20
O=C(Nc1c[nH]nc1-c1nc2ccccc2[nH]1)c1cnn2ccccc12 [Example 122]	< 20
COc1cccc(OC)c1C(=O)Nc1c[nH]nc1-c1nc2ccccc2[nH]1 [Example 46]	< 20
Cc1ccc(C(=O)Nc2c[nH]nc2-c2nc3cc(C)c(C)cc3[nH]2)cc1 [Example 128, N-[3-(5,6-Dimethyl-1H-benzimidazol-2-yl)-1H-pyrazol-4-yl]-4-methyl-benzamide]	< 20
COc1ccccc1C(=O)Nc1c[nH]nc1-c1nc2ccccc2[nH]1 [Example 38]	< 20
O=C(Nc1c[nH]nc1-c1nc2ccccc2[nH]1)c1cccc(CN2CCCC2)c1F [Example 105, N-[3-(1H-Benzimidazol-2-yl)-1H-pyrazol-4-yl]-2-fluoro-3-pyrrolidin-1-ylmethyl-benzamide]	< 20
O=C(Nc1c[nH]nc1-c1nc2ccccc2[nH]1)C1CCCCC1 [Example 7, Cyclohexanecarboxylic Acid [3-(1H-benzimidazol-2-yl)-1H-pyrazol-4-yl]-amide]	< 20
O=C(Nc1c[nH]nc1-c1nc2ccccc2[nH]1)c1cccc2c1OCCO2 [Example 36]	< 20
O=C1NCCN1c1c[nH]nc1-c1nc2ccccc2[nH]1 [Example 126, 1-[3-(1H-benzimidazol-2-yl)-1H-pyrazol-4-yl]-imidazolidin-2-one]	< 20
O=C(Nc1c[nH]nc1-c1nc2ccccc2[nH]1)c1ccc(CN2CCOCC2)o1 [Example 124]	< 20
O=C(Nc1c[nH]nc1-c1nc2c(F)c(F)ccc2[nH]1)c1c(F)cccc1F [Example 81]	< 20
O=C(Nc1c[nH]nc1-c1nc2ccccc2[nH]1)c1ccsc1 [Example 108]	< 20
COc1ccc(C(=O)Nc2c[nH]nc2-c2nc3ccccc3[nH]2)c(C)c1 [Example 55]	< 20
COc1cc(F)c(C(=O)Nc2c[nH]nc2-c2nc3ccccc3[nH]2)c(F)c1 [Example 41]	< 20
COC(=O)c1ccc2[nH]c(-c3n[nH]cc3NC(=O)c3c(F)cccc3F)nc2c1 [Example 16, 2-[4-(2,6-Difluoro-benzoylamino)-1H-pyrazol-3-yl]-1H-benzimidazole-5-carboxylic Acid methyl ester]	< 20
O=C(Nc1c[nH]nc1-c1nc2cc(C(=O)N3CCOCC3)ccc2[nH]1)c1cccc2c1OCCO2 [Example 101, 2,3-Dihydro-benzo[1,4]dioxine-5-carboxylic Acid {3-[5-(morpholine-4-carbonyl)-1H-benzimidazol-2-yl]-1H-pyrazol-4-yl}-amide]	< 20
O=C(Nc1c[nH]nc1-c1nc2c(CN3CCOCC3)cccc2[nH]1)c1c(F)cccc1F [Example 12, 2,6-Difluoro-N-[3-(4-morpholin-4-yl-methyl-1H-benzimidazol-2-yl)-1H-pyrazol-4-yl]-benzamide]	< 20
O=C(Nc1c[nH]nc1-c1nc2ccccc2[nH]1)c1cccc2cc[nH]c12 [Example 50]	< 20
Cc1cc(C)c(C(=O)Nc2c[nH]nc2-c2nc3ccccc3[nH]2)c(C)c1 [Example 64]	< 20
CN1CCC(Oc2ccc3[nH]c(-c4n[nH]cc4NC(=O)c4c(F)cccc4F)nc3c2)CC1 [Example 76, 2,6-Difluoro-N-{3-[5-(1-methyl-piperidin-4-yloxy)-1H-benzimidazol-2-yl]-1H-pyrazol-4-yl}-benzamide]	< 20
Cc1occc1C(=O)Nc1c[nH]nc1-c1nc2ccccc2[nH]1 [Example 120]	< 20

Compound	IC50 [µM]
O=C(Nc1c[nH]nc1-c1nc2ccccc2[nH]1)c1c(Cl)cc(Cl)cc1Cl [Example 61]	< 20
CN(C)Cc1ccc2[nH]c(-c3n[nH]cc3NC(=O)c3c(F)cccc3F)nc2c1 [Example 25, N-[3-(5-Dimethylaminomethyl-1H-benzimidazol-2-yl)-1H-pyrazol-4-yl]-2,6-difluoro-benzamide]	< 20
Cc1ccoc1C(=O)Nc1c[nH]nc1-c1nc2ccccc2[nH]1 [Example 110]	< 20
Cc1cnc2c(C(=O)Nc3c[nH]nc3-c3nc4ccccc4[nH]3)c(Cl)ccc2c1 [Example 48]	< 20
CN1CCN(Cc2c(O)ccc3[nH]c(-c4n[nH]cc4NC(=O)c4c(F)cccc4F)nc23)CC1 [Example 92, 2,6-Difluoro-N-{3-[5-hydroxy-4-(4-methyl-piperazin-1-ylmethyl)-1H-benzimidazol-2-yl]-1H-pyrazol-4-yl}-benzamide]	< 20
O=C(Nc1c[nH]nc1-c1nc2ccccc2[nH]1)c1ccc(N2CCOCC2)cc1Cl [Example 67]	< 20
O=C(Nc1c[nH]nc1-c1nc2ccccc2[nH]1)c1ccc(F)cc1F [Example 58]	< 20
O=C(Nc1c[nH]nc1-c1nc2cc(CN3CCCC3)ccc2[nH]1)c1c(F)cccc1F [Example 70]	< 20
O=C(Nc1c[nH]nc1-c1nc2ccccc2[nH]1)c1ccc(CN2CCCC2)o1 [Example 125]	< 20
COc1cc2nc(-c3n[nH]cc3NC(=O)c3c(F)cccc3F)[nH]c2cc1OC [Example 83]	< 20
Cc1sccc1C(=O)Nc1c[nH]nc1-c1nc2ccccc2[nH]1 [Example 109]	< 20
COc1ccc2[nH]c(-c3n[nH]cc3NC(=O)c3c(F)cccc3F)nc2c1 [Example 27, 2,6-Difluoro-N-[3-(5-methoxy-1H-benzimidazol-2-yl)-1H-pyrazol-4-yl]-benzamide]	< 20
COc1ccc(F)c(C(=O)Nc2c[nH]nc2-c2nc3ccccc3[nH]2)c1 [Example 45]	< 20
Cc1cccc(C)c1C(=O)Nc1c[nH]nc1-c1nc2ccccc2[nH]1 [Example 62]	< 20
CC(C)N1CCN(C(=O)c2ccc3[nH]c(-c4n[nH]cc4NC(=O)c4c(F)cccc4F)nc3c2)CC1 [Example 89, 2,6-Difluoro-N-{3-[5-(4-isopropyl-piperazine-1-carbonyl)-1H-benzimidazol-2-yl]-1H-pyrazol-4-yl}-benzamide]	< 20
O=C(Nc1c[nH]nc1-c1nc2cc(CN3CCOCC3)ccc2[nH]1)c1c(F)cccc1F [Example 22, 2,6-Difluoro-N-[3-(5-morpholin-4-ylmethyl-1H-benzimidazol-2-yl)-1H-pyrazol-4-yl]-benzamide]	< 20
O=C(Nc1c[nH]nc1-c1nc2ccccc2[nH]1)c1ccoc1 [Example 107]	< 20
COc1cccc(C)c1C(=O)Nc1c[nH]nc1-c1nc2ccccc2[nH]1 [Example 60]	< 20
CC(C)(C)NCc1ccc2[nH]c(-c3n[nH]cc3NC(=O)c3c(F)cccc3F)nc2c1 [Example 24, N-{3-[5-(tert-Butylamino-methyl)-1H-benzimidazol-2-yl]-1H-pyrazol-4-yl}-2,6-difluoro-benzamide]	< 20
O=C(Nc1c[nH]nc1-c1nc2c(CN3CCOCC3)c(O)ccc2[nH]1)c1c(F)cccc1F [Example 93, 2,6-Difluoro-N-[3-(5-hydroxy-4-morpholin-4-ylmethyl-1H-benzimidazol-2-yl)-1H-pyrazol-4-yl]-benzamide]	< 20
O=C(Nc1c[nH]nc1-c1nc2cc(C(=O)N3CCOCC3)ccc2[nH]1)c1c(F)cccc1Cl [Example 99, 2-Chloro-6-fluoro-N-{3-[5-(morpholine-4-carbonyl)-1H-benzimidazol-2-yl]-1H-pyrazol-4-yl}-benzamide]	< 20
CN(C)Cc1cccc2[nH]c(-c3n[nH]cc3NC(=O)c3c(F)cccc3F)nc12 [Example 15, N-[3-(4-Dimethylaminomethyl-1H-benzimidazol-2-yl)-1H-pyrazol-4-yl]-2,6-difluoro-benzamide]	< 20
